{"source": "patent EP4847622A1", "about": "“METHOD FOR PRODUCING VIRAL VECTOR” (dated 2026)", "origin": "cited, not measured here", "test_system": "HEK293 cells", "conditions": "rAAV produced using HEK293 cells; cited from earlier work", "note": "The structures given here were assigned with low confidence; some may be wrong.", "data": [{"smiles": "CN(C)c1ccc(C(=O)NCCCCCCC(=O)NO)cc1", "values": [{"measurement": "titer of the rAAV8 genome", "result": "improved"}]}]}
